Source: patent US20160369115A1, “POLARIZING PLATE COMPOSITION, POLARIZING PLATE PROTECTIVE FILM, POLARIZER, POLARIZING PLATE, LIQUID CRYSTAL DISPLAY DEVICE, AND COMPOUND USED IN THE LIQUID CRYSTAL DISPLAY DEVICE” (FUJIFILM Corporation, priority 2014, published 2016)

Columns and labels:
[1] = Bleed-out properties in polarizer (haze evaluation); conditions: haze of polarizing plate, additive in polarizer
[2] = Evaluation of durability of polarizing plate, additive in polarizer (Example 2); conditions: 410 nm
[3] = Evaluation of durability of polarizing plate, additive in adhesive layer (Example 3); conditions: for Durability of polarizer: amount of change of orthogonal transmittance (%) 60° C., 95%, 500 hours / Durability of polarizer: amount of change of orthogonal transmittance (%) 60° C., 95%, 1,000 hours / Durability of polarizer: amount of change of orthogonal transmittance (%) 80° C., Dry 500 hours / Durability of polarizer: amount of change of orthogonal transmittance (%) 80° C., Dry, 1,000 hours: 410 nm
[4] = added amount 0.1 per 100 parts by mass of polyvinyl alcohol resin
[5] = added amount 1.0 per 100 parts by mass of polyvinyl alcohol resin
[6] = added amount 10.0 per 100 parts by mass of polyvinyl alcohol resin
[7] = added amount 1.0 per 100 parts by mass of the polyvinyl alcohol resin, film thickness 5 μm
[8] = added amount 10.0 per 100 parts by mass of the polyvinyl alcohol resin, film thickness 5 μm
[9] = added amount 20.0 per 100 parts by mass of the polyvinyl alcohol resin, film thickness 10 μm

With `COC(=O)Oc1c(Cc2ccc(S(=O)(=O)[O-])cc2S(=O)(=O)[O-])c(=O)n(-c2ccccc2)c(=O)n1Cc1ccccc1.[Na+].[Na+]` [Example compound B] the Bleed out [1, 4] was “A (The haze was less than 0.3%.)”, the Bleed out [1, 5] was “A (The haze was less than 0.3%.)” and the Bleed out [1, 6] was “A (The haze was less than 0.3%.)”. The “Durability of polarizer: amount of change of degree of polarization (%) 60° C., 95%, 500 hours” value [2, 4] was “A+ (The amount of change of the degree of polarization before and after the elapse of time was less than 0.05%.)”, the “Durability of polarizer: amount of change of degree of polarization (%) 60° C., 95%, 1,000 hours” value [2, 4] was “A+ (The amount of change of the degree of polarization before and after the elapse of time was less than 1.0%.)” and the “Durability of polarizer: amount of change of degree of polarization (%) 80° C., Dry, 500 hours” value [2, 4] was “A+ (The amount of change of the degree of polarization before and after the elapse of time was less than 0.05%.)”. For the same compound, the “Durability of polarizer: amount of change of degree of polarization (%) 80° C., Dry, 1,000 hours” value [2, 4] was “A+ (The amount of change of the degree of polarization before and after the elapse of time was less than 0.1%.)”, the “Durability of polarizer: amount of change of orthogonal transmittance (%) 60° C., 95%, 500 hours” value [2, 4] was “A+ (The amount of change of the orthogonal transmittance before and after the elapse of time was less than 0.1%.)” and the “Durability of polarizer: amount of change of orthogonal transmittance (%) 60° C., 95%, 1,000 hours” value [2, 4] was “A+ (The amount of change of the orthogonal transmittance before and after the elapse of time was less than 0.5%.)”. For the same compound, the “Durability of polarizer: amount of change of orthogonal transmittance (%) 80° C., Dry 500 hours” value [2, 4] was “A+ (The amount of change of the orthogonal transmittance before and after the elapse of time was less than 0.05%.)”, the “Durability of polarizer: amount of change of orthogonal transmittance (%) 80° C., Dry, 1,000 hours” value [2, 4] was “A+ (The amount of change of the orthogonal transmittance before and after the elapse of time was less than 0.1%.)” and the “Durability of polarizer: amount of change of degree of polarization (%) 60° C., 95%, 500 hours” value [2, 5] was “A+ (The amount of change of the degree of polarization before and after the elapse of time was less than 0.05%.)”. For the same compound, the “Durability of polarizer: amount of change of degree of polarization (%) 60° C., 95%, 1,000 hours” value [2, 5] was “A+ (The amount of change of the degree of polarization before and after the elapse of time was less than 1.0%.)”, the “Durability of polarizer: amount of change of degree of polarization (%) 80° C., Dry, 500 hours” value [2, 5] was “A+ (The amount of change of the degree of polarization before and after the elapse of time was less than 0.05%.)” and the “Durability of polarizer: amount of change of degree of polarization (%) 80° C., Dry, 1,000 hours” value [2, 5] was “A+ (The amount of change of the degree of polarization before and after the elapse of time was less than 0.1%.)”. For the same compound, the “Durability of polarizer: amount of change of orthogonal transmittance (%) 60° C., 95%, 500 hours” value [2, 5] was “A+ (The amount of change of the orthogonal transmittance before and after the elapse of time was less than 0.1%.)”, the “Durability of polarizer: amount of change of orthogonal transmittance (%) 60° C., 95%, 1,000 hours” value [2, 5] was “A+ (The amount of change of the orthogonal transmittance before and after the elapse of time was less than 0.5%.)” and the “Durability of polarizer: amount of change of orthogonal transmittance (%) 80° C., Dry 500 hours” value [2, 5] was “A+ (The amount of change of the orthogonal transmittance before and after the elapse of time was less than 0.05%.)”. The “Durability of polarizer: amount of change of orthogonal transmittance (%) 80° C., Dry, 1,000 hours” value [2, 5] was “A+ (The amount of change of the orthogonal transmittance before and after the elapse of time was less than 0.1%.)”, the “Durability of polarizer: amount of change of degree of polarization (%) 60° C., 95%, 500 hours” value [2, 6] was “A+ (The amount of change of the degree of polarization before and after the elapse of time was less than 0.05%.)” and the “Durability of polarizer: amount of change of degree of polarization (%) 60° C., 95%, 1,000 hours” value [2, 6] was “A+ (The amount of change of the degree of polarization before and after the elapse of time was less than 1.0%.)”. The “Durability of polarizer: amount of change of degree of polarization (%) 80° C., Dry, 500 hours” value [2, 6] was “A+ (The amount of change of the degree of polarization before and after the elapse of time was less than 0.05%.)”, the “Durability of polarizer: amount of change of degree of polarization (%) 80° C., Dry, 1,000 hours” value [2, 6] was “A+ (The amount of change of the degree of polarization before and after the elapse of time was less than 0.1%.)” and the “Durability of polarizer: amount of change of orthogonal transmittance (%) 60° C., 95%, 500 hours” value [2, 6] was “A+ (The amount of change of the orthogonal transmittance before and after the elapse of time was less than 0.1%.)”. For the same compound, the “Durability of polarizer: amount of change of orthogonal transmittance (%) 60° C., 95%, 1,000 hours” value [2, 6] was “A+ (The amount of change of the orthogonal transmittance before and after the elapse of time was less than 0.5%.)”, the “Durability of polarizer: amount of change of orthogonal transmittance (%) 80° C., Dry 500 hours” value [2, 6] was “A+ (The amount of change of the orthogonal transmittance before and after the elapse of time was less than 0.05%.)” and the “Durability of polarizer: amount of change of orthogonal transmittance (%) 80° C., Dry, 1,000 hours” value [2, 6] was “A+ (The amount of change of the orthogonal transmittance before and after the elapse of time was less than 0.1%.)”. The “Durability of polarizer: amount of change of degree of polarization (%) 60° C., 95%, 500 hours” value [3, 7] was “A+ (The amount of change of the degree of polarization before and after the elapse of time was less than 0.05%.)”, the “Durability of polarizer: amount of change of degree of polarization (%) 60° C., 95%, 1,000 hours” value [3, 7] was “A+ (The amount of change of the degree of polarization before and after the elapse of time was less than 1.0%.)” and the “Durability of polarizer: amount of change of degree of polarization (%) 80° C., Dry, 500 hours” value [3, 7] was “A+ (The amount of change of the degree of polarization before and after the elapse of time was less than 0.05%.)”. For the same compound, the “Durability of polarizer: amount of change of degree of polarization (%) 80° C., Dry, 1,000 hours” value [3, 7] was “A+ (The amount of change of the degree of polarization before and after the elapse of time was less than 0.1%.)”, the “Durability of polarizer: amount of change of orthogonal transmittance (%) 60° C., 95%, 500 hours” value [3, 7] was “A+ (The amount of change of the orthogonal transmittance before and after the elapse of time was less than 0.1%.)” and the “Durability of polarizer: amount of change of orthogonal transmittance (%) 60° C., 95%, 1,000 hours” value [3, 7] was “A+ (The amount of change of the orthogonal transmittance before and after the elapse of time was less than 0.5%.)”. For the same compound, the “Durability of polarizer: amount of change of orthogonal transmittance (%) 80° C., Dry 500 hours” value [3, 7] was “A+ (The amount of change of the orthogonal transmittance before and after the elapse of time was less than 0.05%.)”, the “Durability of polarizer: amount of change of orthogonal transmittance (%) 80° C., Dry, 1,000 hours” value [3, 7] was “A+ (The amount of change of the orthogonal transmittance before and after the elapse of time was less than 0.1%.)” and the “Durability of polarizer: amount of change of degree of polarization (%) 60° C., 95%, 500 hours” value [3, 8] was “A+ (The amount of change of the degree of polarization before and after the elapse of time was less than 0.05%.)”. For the same compound, the “Durability of polarizer: amount of change of degree of polarization (%) 60° C., 95%, 1,000 hours” value [3, 8] was “A+ (The amount of change of the degree of polarization before and after the elapse of time was less than 1.0%.)”, the “Durability of polarizer: amount of change of degree of polarization (%) 80° C., Dry, 500 hours” value [3, 8] was “A+ (The amount of change of the degree of polarization before and after the elapse of time was less than 0.05%.)” and the “Durability of polarizer: amount of change of degree of polarization (%) 80° C., Dry, 1,000 hours” value [3, 8] was “A+ (The amount of change of the degree of polarization before and after the elapse of time was less than 0.1%.)”. The “Durability of polarizer: amount of change of orthogonal transmittance (%) 60° C., 95%, 500 hours” value [3, 8] was “A+ (The amount of change of the orthogonal transmittance before and after the elapse of time was less than 0.1%.)”, the “Durability of polarizer: amount of change of orthogonal transmittance (%) 60° C., 95%, 1,000 hours” value [3, 8] was “A+ (The amount of change of the orthogonal transmittance before and after the elapse of time was less than 0.5%.)” and the “Durability of polarizer: amount of change of orthogonal transmittance (%) 80° C., Dry 500 hours” value [3, 8] was “A+ (The amount of change of the orthogonal transmittance before and after the elapse of time was less than 0.05%.)”. For the same compound, the “Durability of polarizer: amount of change of orthogonal transmittance (%) 80° C., Dry, 1,000 hours” value [3, 8] was “A+ (The amount of change of the orthogonal transmittance before and after the elapse of time was less than 0.1%.)”, the “Durability of polarizer: amount of change of degree of polarization (%) 60° C., 95%, 500 hours” value [3, 9] was “A+ (The amount of change of the degree of polarization before and after the elapse of time was less than 0.05%.)” and the “Durability of polarizer: amount of change of degree of polarization (%) 60° C., 95%, 1,000 hours” value [3, 9] was “A+ (The amount of change of the degree of polarization before and after the elapse of time was less than 1.0%.)”. The “Durability of polarizer: amount of change of degree of polarization (%) 80° C., Dry, 500 hours” value [3, 9] was “A+ (The amount of change of the degree of polarization before and after the elapse of time was less than 0.05%.)”, the “Durability of polarizer: amount of change of degree of polarization (%) 80° C., Dry, 1,000 hours” value [3, 9] was “A+ (The amount of change of the degree of polarization before and after the elapse of time was less than 0.1%.)” and the “Durability of polarizer: amount of change of orthogonal transmittance (%) 60° C., 95%, 500 hours” value [3, 9] was “A+ (The amount of change of the orthogonal transmittance before and after the elapse of time was less than 0.1%.)”. For the same compound, the “Durability of polarizer: amount of change of orthogonal transmittance (%) 60° C., 95%, 1,000 hours” value [3, 9] was “A+ (The amount of change of the orthogonal transmittance before and after the elapse of time was less than 0.5%.)”, the “Durability of polarizer: amount of change of orthogonal transmittance (%) 80° C., Dry 500 hours” value [3, 9] was “A+ (The amount of change of the orthogonal transmittance before and after the elapse of time was less than 0.05%.)” and the “Durability of polarizer: amount of change of orthogonal transmittance (%) 80° C., Dry, 1,000 hours” value [3, 9] was “A+ (The amount of change of the orthogonal transmittance before and after the elapse of time was less than 0.1%.)”.
